The source of these data is PubChem BioAssay AID256 (DTP/NCI, 2004).

In this test the test system is CD2F1 mice, L1210 leukemia ip, survival T/C. Put plainly: NCI In Vivo Anticancer Drug Screen. Data for tumor model L1210 Leukemia (intraperitoneal) in CD2F1 (CDF1) mice. Conditions: higher T/C = longer survival. In outline: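 In this screen, transplantable tumors were grown in mice given either the compound or its vehicle. Results were expressed as the treated measurement relative to the control measurement.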

The mark [1] stands for this setting: T/C endpoint: mean survival time, dose: 400.0 mg/kg/injection, schedule: Q01DX009 (ip), vehicle: saline with Tween-80.
Setting [2] is: T/C endpoint: mean survival time, dose: 100.0 mg/kg/injection, schedule: Q01DX009 (ip), vehicle: saline with Tween-80.
Setting [3] is: T/C endpoint: median survival time, dose: 400.0 mg/kg/injection, schedule: Q01DX009 (ip), vehicle: saline with Tween-80.
[4] abbreviates: T/C endpoint: mean survival time, dose: 200.0 mg/kg/injection, schedule: Q01DX009 (ip), vehicle: saline with Tween-80.

SMILES strings stand for the structures. The list shows only some results of the screen, not a fair sample: it is rich in T/C values a quarter to a half above the control, in often repeated tests (any T/C) and in doses without a T/C. Further doses and runs are listed elsewhere. T/C: endpoint of the treated group in % of that of the vehicle group. Some entries give survivors of the animals treated and no T/C: the source files T/C as zero there, which appears to mark a toxic dose or a test without result, not a measured value. Some doses without a T/C left all or most animals alive at the check, yet need not have been tolerated: survival well below the control is almost never listed, so the zero probably covers shortened survival too. Survivors were counted at the toxicity check, usually on the fifth day, unless a day is given; later deaths do not show. Schedules are NCI's codes, read here as Q, the interval in days (D) or hours (H), X, the number of doses. Some entries hold several experiments; the results are listed from low to high. Some schedule codes hold Z or #, which are not explained here. For survival time, this PubChem deposit counts one and a half times the control or more as active, and values a quarter to a half above the control carry no call in these data; other NCI protocols may use other cut-offs. Some T/C values are followed by the survivors on the day toxicity was checked, most often the fifth; without a count, all were alive then.

Consider `CC(=O)Nc1ccc(N=NN(C)Cc2ccccc2)cc1`, for which the survivor count by setting is: (T/C endpoint: mean survival time, dose: 100.0 mg/kg/injection, schedule: Q01DX001 (ip), vehicle: Klucel (hydroxypropylcellulose) (HPC)) 0 of 3; (T/C endpoint: mean survival time, dose: 200.0 mg/kg/injection, schedule: Q01DX001 (ip), vehicle: Klucel (hydroxypropylcellulose) (HPC)) 0 of 3; (T/C endpoint: mean survival time, dose: 400.0 mg/kg/injection, schedule: Q01DX001 (ip), vehicle: Klucel (hydroxypropylcellulose) (HPC)) 0 of 3.
With `CCO/N=C(\N)c1ccccc1`, the survivor count under setting [1] is reported as 3 of 6.
Turning to `O=C(N/N=C/c1ccc2c(c1)OCO2)c1cccc(C(F)(F)F)c1`, under setting [2], the survivor count is 3 of 3.
In the case of `CN=C(N)N/N=C(\C)c1ccc2c(c1)Cc1ccccc1-2`, the survivor count under setting [1] is 2 of 6 and the survivor count under setting [3] was 5 of 10.
As to `O=C(NC1CCc2ccccc21)c1ccccc1` (stereo unspecified), the survivor count under setting [2] is 6 of 6 and the survivor count under setting [4] is 6 of 6.
For `CC(=O)c1ccc2c3c(ccc([N+](=O)[O-])c13)CC2`, the survivor count is listed as 3 of 6 under setting [4] and 3 of 6 under setting [1].
Regarding `COc1cc(OC)c(NC(=O)Oc2ccc(NC(C)=O)cc2)cc1Cl`, the survivor count under setting [4] is given as 3 of 3.
Turning to `OCC1OC(n2cnc3c(SCc4ccccc4)ncnc32)C(O)C1O` (stereo unspecified), the T/C runs as follows: (T/C endpoint: mean survival time, dose: 88.0 mg/kg/injection, schedule: Q01DX009 (ip), vehicle: saline) 127 % of control; (T/C endpoint: mean survival time, dose: 176.0 mg/kg/injection, schedule: Q01DX001 (ip), vehicle: other) 127 % of control; (T/C endpoint: mean survival time, dose: 264.0 mg/kg/injection, schedule: Q01DX001 (ip), vehicle: other) 132 % of control; (T/C endpoint: mean survival time, dose: 300.0 mg/kg/injection, schedule: Q01DX009 (ip), vehicle: saline) 138 % of control [5 of 6 alive]. Also, the survivor count (T/C endpoint: mean survival time, dose: 600.0 mg/kg/injection, schedule: Q01DX001 (ip), vehicle: other) is on record as 1 of 6.
Regarding `NC(=S)N/N=C/c1ccc(-c2ccccc2)cc1`, the survivor count runs as follows: (T/C endpoint: mean survival time, dose: 200.0 mg/kg/injection, schedule: Q04DX003 (ip), vehicle: saline with Tween-80) 4 of 6; (T/C endpoint: mean survival time, dose: 400.0 mg/kg/injection, schedule: Q04DX003 (ip), vehicle: saline with Tween-80) 0 of 6.
`O=c1scc(-c2ccc([N+](=O)[O-])cc2)s1`: for the setting “T/C endpoint: mean survival time, dose: 50.0 mg/kg/injection, schedule: Q04DX003 (ip), vehicle: Klucel (hydroxypropylcellulose) (HPC)”, the survivor count was 1 of 6.
Consider `CC(O)c1ccc2c(c1)N(CCCN1CCN(CCO)CC1)c1ccccc1S2` (stereo unspecified), for which the survivor count runs as follows: (T/C endpoint: mean survival time, dose: 200.0 mg/kg/injection, schedule: Q04DX003 (ip), vehicle: saline) 0 of 6; (T/C endpoint: mean survival time, dose: 400.0 mg/kg/injection, schedule: Q04DX003 (ip), vehicle: saline) 0 of 6.
Take `NC(CCC(=O)NC(CSC(c1ccccc1)(c1ccccc1)c1ccc(F)cc1)C(=O)NCC(=O)O)C(=O)O` (stereo unspecified): the T/C is, setting by setting: (T/C endpoint: mean survival time, dose: 50.0 mg/kg/injection, schedule: Q01DX009 (ip), vehicle: saline) 128 % of control; (T/C endpoint: mean survival time, dose: 100.0 mg/kg/injection, schedule: Q01DX009 (ip), vehicle: saline) 136 % of control; (T/C endpoint: mean survival time, dose: 400.0 mg/kg/injection, schedule: Q01DX009 (ip), vehicle: saline) 140 % of control.
`O=C1C=C(N2CCOCC2)c2ccccc2C1=O`: the survivor count (T/C endpoint: mean survival time, dose: 300.0 mg/kg/injection, schedule: Q01DX001 (ip), vehicle: saline) was 0 of 6.
`C1=CC2OC1c1cc3ccccc3cc12`: where the note is “T/C endpoint: mean survival time, dose: 400.0 mg/kg/injection, schedule: Q04DX003 (ip), vehicle: other”, the survivor count is 2 of 6.
Take `N=C(N)c1cccc(NC(=O)c2ccc(C(=O)Nc3cccc(C(=N)N)c3)c(N)c2)c1`: the survivor count runs as follows: (T/C endpoint: mean survival time, dose: 50.0 mg/kg/injection, schedule: Q01DX Z (ip), vehicle: carboxymethylcellulose (CMC)) 0 of 6; (T/C endpoint: mean survival time, dose: 100.0 mg/kg/injection, schedule: Q01DX Z (ip), vehicle: carboxymethylcellulose (CMC)) 0 of 6; (T/C endpoint: mean survival time, dose: 200.0 mg/kg/injection, schedule: Q01DX Z (ip), vehicle: carboxymethylcellulose (CMC)) 0 of 6; (T/C endpoint: mean survival time, dose: 400.0 mg/kg/injection, schedule: Q01DX Z (ip), vehicle: carboxymethylcellulose (CMC)) 0 of 6.
`COc1cc(C(C)c2cc3c(cc2OCCO)OCO3)cc(OC)c1OC` (stereo unspecified): the T/C by setting is: (T/C endpoint: median survival time, dose: 200.0 mg/kg/injection, schedule: Q01DX009 (ip), vehicle: saline with Tween-80, evaluated on day 25) 143 % of control; (T/C endpoint: median survival time, dose: 200.0 mg/kg/injection, schedule: Q01DX009 (ip), vehicle: saline with Tween-80, evaluated on day 30) 133 % of control [4 of 6 alive]. In addition, under setting [3], the survivor count was 0 of 6 and 1 of 6.
Take `COc1ccccc1C1N(C)CCCN1C`: the survivor count is, setting by setting: (T/C endpoint: mean survival time, dose: 100.0 mg/kg/injection, schedule: Q04DX003 (ip), vehicle: saline sonified) 0 of 6; (T/C endpoint: mean survival time, dose: 200.0 mg/kg/injection, schedule: Q04DX003 (ip), vehicle: saline sonified) 0 of 6; (T/C endpoint: mean survival time, dose: 400.0 mg/kg/injection, schedule: Q04DX003 (ip), vehicle: saline sonified) 0 of 6.
In the case of `C(=N/N=C/c1ccc2c(c1)OCO2)/c1ccco1`, under setting [2], the survivor count is 6 of 6.
Regarding `COc1cccc(CN2CCN(N)CC2)c1`, the survivor count (T/C endpoint: mean survival time, dose: 400.0 mg/kg/injection, schedule: Q01DX009 (ip), vehicle: Klucel (hydroxypropylcellulose) (HPC)) is given as 0 of 6.
As to `CCC(C)(O)C(C)=O` (stereo unspecified), the survivor count (T/C endpoint: mean survival time, dose: 50.0 mg/kg/injection, schedule: Q01DX009 (ip), vehicle: Klucel (hydroxypropylcellulose) (HPC)) is reported as 2 of 3.
`C/C(=N\NC(=S)N1CC2CCC(CC2)C1)c1cccc(C)n1`: where the note is “T/C endpoint: median survival time, dose: 50.0 mg/kg/injection, schedule: Q01DX005 (ip), vehicle: saline with Tween-80”, the survivor count is 4 of 6 and 5 of 6.
